The assay concerns the target MoPrb1-nYFP (Magnaporthe oryzae) (UniProt P58371). The assay is described as follows: split reporter.

Sequences of proteins named here, by UniProt entry; tags and fusion partners are left off. A change or cut given only in a name is not applied to a line headed by its entry.
UniProt P58371: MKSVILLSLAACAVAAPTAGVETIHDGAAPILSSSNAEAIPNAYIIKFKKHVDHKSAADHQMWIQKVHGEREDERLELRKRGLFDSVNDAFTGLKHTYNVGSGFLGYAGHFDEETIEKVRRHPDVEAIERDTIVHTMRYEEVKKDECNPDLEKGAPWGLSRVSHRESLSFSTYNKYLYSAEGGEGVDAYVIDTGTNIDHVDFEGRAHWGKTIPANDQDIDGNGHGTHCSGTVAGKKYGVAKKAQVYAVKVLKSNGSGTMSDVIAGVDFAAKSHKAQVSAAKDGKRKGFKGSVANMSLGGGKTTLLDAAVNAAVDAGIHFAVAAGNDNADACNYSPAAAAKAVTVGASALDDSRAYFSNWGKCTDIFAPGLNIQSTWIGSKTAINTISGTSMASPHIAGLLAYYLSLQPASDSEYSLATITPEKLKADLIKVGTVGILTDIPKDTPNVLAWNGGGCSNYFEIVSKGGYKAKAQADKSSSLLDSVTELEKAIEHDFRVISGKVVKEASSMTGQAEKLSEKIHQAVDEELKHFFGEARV
UniProt G4NDG4: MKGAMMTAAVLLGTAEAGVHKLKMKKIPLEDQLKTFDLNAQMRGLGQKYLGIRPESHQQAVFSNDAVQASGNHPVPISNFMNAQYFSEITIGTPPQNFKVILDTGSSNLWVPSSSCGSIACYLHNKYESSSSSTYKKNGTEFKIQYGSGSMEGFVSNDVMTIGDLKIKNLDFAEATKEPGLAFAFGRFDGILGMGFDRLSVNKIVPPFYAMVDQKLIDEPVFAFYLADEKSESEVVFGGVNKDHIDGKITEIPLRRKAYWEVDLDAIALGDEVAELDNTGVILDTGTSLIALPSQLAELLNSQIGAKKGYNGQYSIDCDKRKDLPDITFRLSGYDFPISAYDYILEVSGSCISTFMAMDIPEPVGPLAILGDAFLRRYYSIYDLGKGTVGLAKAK

These are yes or no findings as the source states them, for the method shown. In cells and extracts the contact can be indirect. A result given as binding can be weak or reduced; the word gives no strength.

“cYFP-MoPep4 (from UniProt G4NDG4) (enzyme)”: the binding result is “binds”.

(Values after PMC12591164.)
